About 2,100 (0.66%) of roughly 320,000 compounds were called active. Inconclusive results, whose numbers are uncertain, are shown with a selection of clear calls. The call rests on the fitted dose curve; in most records, active means well fitted inhibition curve with a large enough effect in the signal ratio, with a control signal flat (not every such curve was filed as active); inconclusive means small, poorly fitted or top-dose-only effect, or effect the other way, or a change in a side signal; inactive means flat fitted curve, though single readings scatter; the % refers to the signal ratio. A potency beside an inconclusive call is a rough fit, not a confirmed value.
Test: qHTS Assay for Lipid Storage Modulators in Drosophila S3 Cells
Details: BODIPY lipid droplet fluorescence, 18-24 h, cells fed with added oleic acid; lipid storage change, negative = inhibition: at 46.1 µM (top of the series) unless noted
Outline: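 Drosophila S3 cells loaded with oleic acid (400 uM, as added) and compounds at several concentrations; lipid droplets imaged by 488-nm laser-scanning cytometry, 500–530 nm intensity and object ratio to cell channel. Percent activity normalized to 20 uM Triacsin C.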
On the % scale 0 is the no-effect control and ±100 the full control effect; potency means the concentration at half of the fitted maximal effect.

Structure (SMILES) | lipid storage change, negative = inhibition | Potency
CC(=NCCO)c1c(O)n(C)c(=O)n(C)c1=O | inconclusive: 3.27% | –
CCN(CC)C(=O)c1ccc2c(c1)C1C=CCC1C(C(=O)O)N2 (centres undefined) | – | inconclusive: 0.231 µM [activator, full curve, poor fit]
COC(=O)C1=C(c2ccc(OC)c(OC)c2)C[C@@H]2CC[C@H]1N2C(=O)NC(C)C | – | inconclusive: 0.58 µM [activator, partial curve, poor fit]
CCC(=NCCN1CCOCC1)c1c(O)n(C2CCCCC2)c(=O)[nH]c1=O | inconclusive: 14.6% | –
Cc1nn(-c2ccccc2)c(Cl)c1C1C(C#N)=C(N)Oc2c1c(=O)oc1ccccc21 (centres undefined) | – | inconclusive: 1.3 µM [activator, partial curve]
COc1nc2ccccc2nc1N1CCN(C)CC1 | inconclusive: 51.2% | –
COc1ccc(S(=O)(=O)NCc2ccc(C(=O)N3CCC4(CC3)OCCO4)cc2)cc1 | inconclusive: -2.2% | –
CC(C)CCn1c(N)c(C(=O)OCC2CCCO2)c2nc3ccccc3nc21 (centres undefined) | – | inconclusive: 5.17 µM [rising, partial curve]
CN1CSC(=S)N(C)C1 | – | inconclusive: 2.31 µM [falling, full curve]
N#CC(Br)Br | – | inconclusive: 0.103 µM [falling, full curve, poor fit]
CC(C)c1ccc(OCC(=O)N2CCCN(C)CC2)cc1 | – | inconclusive: 16.4 µM [activator, partial curve, poor fit]
O=P(Oc1ccccc1)(Oc1ccccc1)C(O)c1ccccc1 (centres undefined) | inconclusive: 28.4% | –
COc1ccc(C(=O)C2CCCN(Cc3cnc(C)s3)C2)cc1OC (centres undefined) | – | inconclusive: 5.8 µM [falling, single point]
COC(=O)C1=C(c2ccc(OC)c(OC)c2)C[C@@H]2CC[C@H]1N2C(=O)NC1Cc2ccccc2C1 | – | inconclusive: 8.2 µM [falling, single point]
COc1ccc(CCNCc2ccccc2)cc1 | inconclusive: 18.3% | –
C[C@@H]1O[C@@H](O[C@@H]2C=C3CC[C@@H]4C(CC[C@]5(C)[C@@H](c6ccc(=O)oc6)CC[C@]45O)[C@@]3(C)CC2)[C@H](O)[C@H](O)[C@H]1O (some centres undefined) | inconclusive: 4.68% | –
Cc1nn(-c2ccccc2)c2c1P(=O)(O)/C(=C1\N(C)c3ccccc3C1(C)C)C=N2 | – | inconclusive: 11.6 µM [rising, single point]
O=C(CCc1ccccc1)N1C[C@H]2C[C@@H](C1)c1cccc(=O)n1C2 | – | inconclusive: 29.1 µM [activator, single point]
CN1CCN(c2nc(Cl)ncc2F)CC1 | inconclusive: -2.52% | –
Cn1c(O)c(C=NC2CC3CCC2(C)C3(C)C)c(=O)[nH]c1=O (centres undefined) | inconclusive: 17% | –
COc1ccc(CCn2c(O)c(C=NCCCO)c(=O)[nH]c2=O)cc1OC | inconclusive: 14.1% | –
CN(Cc1ccccc1)C(=C(Cl)Cl)/C(=C1/NCCN1Cc1ccc(Cl)nc1)[N+](=O)[O-] | inconclusive: -1.7% | –
Cc1nnc(NC(=O)CCn2c(=O)oc3ccc(Cl)cc32)s1 | – | inconclusive: 18.4 µM [activator, partial curve]
c1ccc2sc(C3CCNCC3)nc2c1 | inconclusive: -7.01% | –
O=S1(=O)N(Cc2ccc(F)cc2)CCCN1Cc1ccccc1Cl | inconclusive: 12.1% | –

Whole records, looked up by structure. Values in the order: lipid storage change, negative = inhibition | Potency
COc1ccc(C(=O)C2CCCN(Cc3cnc(C)s3)C2)cc1OC (centres undefined) as listed: – | inconclusive: 5.8 µM [falling, single point]
CN(Cc1ccccc1)C(=C(Cl)Cl)/C(=C1/NCCN1Cc1ccc(Cl)nc1)[N+](=O)[O-] as listed: inconclusive: -1.7% | –
COC(=O)C1=C(c2ccc(OC)c(OC)c2)C[C@@H]2CC[C@H]1N2C(=O)NC(C)C as listed: – | inconclusive: 0.58 µM [activator, partial curve, poor fit]
N#CC(Br)Br as listed: – | inconclusive: 0.103 µM [falling, full curve, poor fit]

More compounds:

Structure (SMILES) | lipid storage change, negative = inhibition | Potency
O=C(Cc1ccccc1)Oc1ccccc1N1C(=O)CCC1=O | – | inconclusive: 29.1 µM [cytotoxic, single point]
N#CC1=C(N)Oc2c(c(=O)oc3ccccc23)C1c1ccccc1OC(=O)c1cccs1 (centres undefined) | inconclusive: 31.1% | –
O=C1NC(=O)N(Cc2ccco2)C(=O)/C1=C/c1cccn1CCOc1ccccc1Cl | – | inconclusive: 23.1 µM [falling, single point]
O=c1[nH]c(O)c(/C=C2/C=CC(c3cc(Cl)ccc3Cl)=N2)c(=O)[nH]1 | – | inconclusive: 0.651 µM [falling, single point]
FC(F)(F)c1ccc(NC2=NCCCS2)cc1 | inconclusive: -6.42% | –
CCOC(=O)c1c(C)n(Cc2ccccc2)c2ccc(OCC(O)Cn3nc(C)nc3C)cc12 (centres undefined) | inconclusive: 46.2% | –
O=C(c1cc([N+](=O)[O-])ccc1N1CCNCC1)N1CCOCC1 | inconclusive: 11.2% | –
CC(C)c1oc(=O)cc2c1[C@@H](O)[C@H]1OC(=O)[C@@]3(C)CC[C@@H](O)[C@@]2(C)C13 (some centres undefined) | – | inconclusive: 10.3 µM [falling, partial curve]
CCOc1ccc(N2C(=O)NC(=O)/C(=C\c3cc(OC)c(OC)cc3[N+](=O)[O-])C2=O)cc1 | inconclusive: 0.753% | –
Cc1nn(Cc2ccccc2)c(Cl)c1C(=O)NC1CCCc2ccccc21 (centres undefined) | inconclusive: -10.7% | –
CCN(CC)C(=O)c1ccc(NC(=O)c2cccc(C(F)(F)F)c2)cc1 | inconclusive: 25.1% | –
O=C(O)c1cc2ccccc2oc1=O | inconclusive: 17.2% | –
COC(=O)c1c(C)n(Cc2ccco2)c2ccc(O)cc12 | – | inconclusive: 6.51 µM [activator, single point]
Cc1cccc(N2C(=O)NC(=O)/C(=C/c3ccc(N4CCOCC4)cc3)C2=O)c1 | inconclusive: 52.6% | –
c1ccc(CC2CCCCN2)cc1 (centres undefined) | – | inconclusive: 13 µM [activator, partial curve]
S=P(Nn1cnnc1)(c1ccc(Br)cc1)c1ccc(Br)cc1 | – | inconclusive: 29.1 µM [cytotoxic, single point]
Cc1cc(/C=C2\C(=O)NC(=O)N(c3cccc(F)c3)C2=O)c(C)n1-c1cc(C(=O)O)cc(C(=O)O)c1 | – | inconclusive: 23.1 µM [falling, partial curve, poor fit]
O=Cc1cn(Cc2ccccc2F)c2ccccc12 | inconclusive: -11.1% | –
N#CC1(c2ccccc2)CCN(C2CC(=O)N(c3ccc(F)cc3)C2=O)CC1 (centres undefined) | inconclusive: 24.2% | –
CC(=O)OC1N=C(c2ccccc2)c2ccccc2NC1=O (centres undefined) | inconclusive: -35% | –
COc1ccc(CCNCc2sccc2C)cc1OC | inconclusive: 3.83% | –
O=C(NCCCn1ccnc1)C(Cl)(Cl)Cl | inconclusive: 4.9% | –
COc1ccccc1N1CCN(Cc2c(F)cccc2Cl)CC1 | inconclusive: -1.79% | –
CN(C)C(CNC(=O)Cc1ccc(Br)cc1)c1ccccc1 (centres undefined) | inconclusive: 4.32% | –
Cn1cc(C(=O)N2CCOCC2)c2ccccc21 | inconclusive: -57.5% | –

Structure (SMILES) | lipid storage change, negative = inhibition | Potency
Cc1cc(OCC(=O)NCc2ccncc2)c2c3c(c(=O)oc2c1)CCCC3 | – | inconclusive: 29.1 µM [falling, single point]
COC(=O)C1=C(c2ccc(OC(F)(F)F)cc2)C[C@@H]2CC[C@H]1N2C(=O)NCCOc1ccccc1Cl | inactive | –
O=C(c1cc2cc(F)ccc2[nH]1)N1CCC2(CC1)OCCO2 | inconclusive: 87.4% | –
O=C(NC(Cc1cnc[nH]1)C(=O)O)c1ccccc1 (centres undefined) | inconclusive: -44% | –
CCC1C(C#N)=C(N)Oc2c1c(=O)oc1ccccc21 (centres undefined) | inconclusive: 5.75% | –
COc1ccc(N/N=C/c2c(O)n(-c3ccc(C)c(C)c3)c(=O)[nH]c2=O)cc1 | – | inconclusive: 1.64 µM [activator, full curve, poor fit]
O=[N+]([O-])c1cc(Cl)c(O)c(-[n+]2c(-c3ccccc3)cc(-c3ccccc3)cc2-c2ccccc2)c1 | – | inconclusive: 16.4 µM [falling, single point]
O=c1[nH]c(=O)n(-c2cccc(Cl)c2)c(O)c1C=NCCN1CCCCC1 | inconclusive: -6.65% | –
C=Cn1ccnc1P(=S)(c1ccccc1)c1nccn1C=C | inconclusive: -28.5% | –
O=C(O)c1cc[c]([Hg][Cl])cc1 | inconclusive: -19.4% | –
Cc1nn(CC(=O)N2CCC3(CC2)OCCO3)c(=O)c2cc3ccccc3n12 | inconclusive: -9.03% | –
CC(C)CC(C)N (centres undefined) | inconclusive: 4.46% | –
CC1CCN(c2ccc(NC(=O)Cn3c(=O)oc4ccccc43)cc2)CC1 | – | inconclusive: 0.731 µM [falling, full curve]
C/C=C(\C)C(=O)N[C@@H](c1ccccc1)[C@@H](O)C(=O)O[C@H]1C[C@@]2(O)[C@@H](OC(=O)c3ccccc3)C3[C@](C)(C(=O)[C@H](OC(C)=O)C(=C1C)C2(C)C)[C@H](O)C[C@H]1OC[C@@]31OC(C)=O (some centres undefined) | – | inconclusive: 2.91 µM [activator, partial curve, poor fit]
CN=C(SCc1ccccc1)c1c(O)n(C)c(=O)n(C)c1=O | inconclusive: 17.5% [at 9.22 µM] | –
O=C(c1cc(S(=O)(=O)N2CCOCC2)ccc1F)N1CCC2(CC1)OCCO2 | inconclusive: -56.9% | –
C=CCn1c(O)c(C(C)=NCCC(c2ccccc2)c2ccccc2)c(=O)[nH]c1=O | inconclusive: 22.9% | –
CCCCCn1c(=O)c(C(=O)NCc2ccccn2)c(O)c2ccccc21 | inconclusive: 20.1% | –
O=C1NC(=O)N(c2ccc3c(c2)OCO3)C(=O)/C1=C/c1ccc(N2CCCCC2)o1 | inconclusive: -25.2% | –
COc1ccc(CCN(C)Cc2c(F)cccc2F)cc1OC | inconclusive: 4.23% | –
CN1C(=O)N(C)C(=O)C2(Cc3cc(N)ccc3N3CCN(c4ccccc4F)CC32)C1=O (centres undefined) | inconclusive: -4.78% | –
CC(=O)OC1(c2ccc(C)cc2)CN2CCC1c1ccccc12 (centres undefined) | inconclusive: 0.854% | –
CC(C(=O)c1ccc(Cl)cc1Cl)n1cncn1 (centres undefined) | inconclusive: -12.5% | –
CCN1C(=O)N(CC)C(=O)C2(Cc3ccccc3N3CCN(c4ccccc4)CC32)C1=O (centres undefined) | inconclusive: 20% | –
